Measurements reported in publication PMC3541164, “Cytotoxic and potent CYP1 inhibitors from the marine algae Cymopolia barbata” (Organic and Medicinal Chemistry Letters, 2012).

Tested on: MCF-7 cells
Assay: MTS cell viability assay, breast cancer cells
Format: cell-based
Conditions: Homo sapiens, MCF7, 24 h exposure
Description: Cell lines (CCD18 Co, HepG2 and MCF-7) were maintained in ATCC-formulated Eagle’s Minimum Essential Medium and HT29 was maintained in McCoy’s 5a Modified Medium supplemented with 10% fotal bovine serum (Atlas; Fort Collins, CO, USA), 10 mM HEPES solution, 100 mM L-glutamine penicillin streptomycin solution, 3 g/L glucose, and 1.5 g/L of sodium bicarbonate. Cells were maintained at 37°C with 5% CO2 in Corning 75 cm^2 culture flasks. Cells were exposed to a given isolate or known anticancer agent for 24 h. Following the appropriate treatments, cell viability was evaluated using an MTS assay according to the manufacturer’s instructions. All assays were performed at least three times and were monitored spectrophotometrically at 590 nm. Cell viability was recorded as percentage relative to vehicle solvent-treated control.

IC50: 17.28 ± 0.06 µM
SMILES: CC/C(=C(\c1ccccc1)c1ccc(OCCN(C)C)cc1)c1ccccc1 [Tamoxifen, tamoxifen, reference compound]
